Results are given in words; binding and its absence hold for the method and conditions named. Binding seen in cells or lysates may run through a third protein. Some entries that bind do so weakly or less than the wild type. Where a sequence is shown, tags or fusion partners need not be part of it.
Experiments:
[1] = target: ASK1-LN (apoptosis signal-regulating kinase 1 fused to the N-terminal half of mLumin) (human) (UniProt Q99683); test: split reporter; mLumin BiFC in live HEK293 MSR cells, repeated in AnxA2 KO HEK293 MSR cells; LN and LC constructs and GFP co-transfected in equimolar ratio; cells treated with 100 µM H2O2 for 30 min, X/XO (8 µM xanthine, 1 mU/mL xanthine oxidase) for 18 h or 0.8 µM auranofin for 18 h; read-out mLumin/GFP integrated fluorescence
[2] = target: ASK1-LN (apoptosis signal-regulating kinase 1 fused to the N-terminal half of mLumin) (human) (UniProt Q99683); test: condition: only cells without a treatment that raises H2O2; split reporter; mLumin BiFC in live HEK293 MSR cells, no treatment (no exogenous H2O2, X/XO or auranofin); read-out mLumin/GFP integrated fluorescence

Chains of the proteins cited; added tags and fusions are not shown.
UniProt Q99683: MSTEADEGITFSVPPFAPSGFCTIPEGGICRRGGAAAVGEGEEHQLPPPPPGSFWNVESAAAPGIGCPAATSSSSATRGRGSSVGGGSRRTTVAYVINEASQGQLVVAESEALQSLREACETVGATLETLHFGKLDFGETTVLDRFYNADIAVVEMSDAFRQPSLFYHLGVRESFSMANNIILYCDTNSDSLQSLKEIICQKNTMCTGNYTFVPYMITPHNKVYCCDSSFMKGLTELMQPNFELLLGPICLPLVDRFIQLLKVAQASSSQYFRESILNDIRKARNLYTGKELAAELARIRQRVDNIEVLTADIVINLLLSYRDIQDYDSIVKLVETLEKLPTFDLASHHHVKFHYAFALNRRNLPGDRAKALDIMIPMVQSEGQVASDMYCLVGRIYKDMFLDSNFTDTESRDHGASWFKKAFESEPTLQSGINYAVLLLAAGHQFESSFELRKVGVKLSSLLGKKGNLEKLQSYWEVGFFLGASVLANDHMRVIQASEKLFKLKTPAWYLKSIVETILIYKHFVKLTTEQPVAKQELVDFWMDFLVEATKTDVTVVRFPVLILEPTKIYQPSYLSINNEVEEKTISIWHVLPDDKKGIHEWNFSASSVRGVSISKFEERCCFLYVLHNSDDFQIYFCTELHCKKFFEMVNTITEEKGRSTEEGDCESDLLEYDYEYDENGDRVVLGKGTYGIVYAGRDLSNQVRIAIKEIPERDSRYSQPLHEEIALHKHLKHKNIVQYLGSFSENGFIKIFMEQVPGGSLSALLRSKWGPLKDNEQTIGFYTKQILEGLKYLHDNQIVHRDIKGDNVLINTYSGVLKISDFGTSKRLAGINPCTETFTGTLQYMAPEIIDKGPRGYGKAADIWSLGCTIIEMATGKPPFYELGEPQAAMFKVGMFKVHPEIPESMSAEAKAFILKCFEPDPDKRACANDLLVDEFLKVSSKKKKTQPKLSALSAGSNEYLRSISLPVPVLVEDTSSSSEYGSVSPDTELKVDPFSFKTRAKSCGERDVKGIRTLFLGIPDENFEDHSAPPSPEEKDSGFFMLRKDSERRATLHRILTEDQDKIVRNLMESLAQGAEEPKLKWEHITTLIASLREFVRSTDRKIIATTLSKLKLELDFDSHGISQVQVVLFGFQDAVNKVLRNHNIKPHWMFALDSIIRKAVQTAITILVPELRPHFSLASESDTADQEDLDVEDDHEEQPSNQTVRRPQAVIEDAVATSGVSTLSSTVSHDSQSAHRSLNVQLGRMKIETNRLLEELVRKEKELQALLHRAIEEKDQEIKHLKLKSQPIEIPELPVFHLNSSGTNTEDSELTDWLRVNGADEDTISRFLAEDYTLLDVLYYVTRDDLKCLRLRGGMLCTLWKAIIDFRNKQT

Binder | binding [1] | binding [2]
Prdx1 C173A-LC (resolving cysteine mutant fused to the C-terminal half of mLumin) (enzyme, UniProt Q06830 1-199) MSSGNAKIGHPAPNFKATAVMPDGQFKDISLSDYKGKYVVFFFYPLDFTFVCPTEIIAFSDRAEEFKKLNCQVIGASVDSHFCHLAWVNTPKKQGGLGPMNIPLVSDPKRTIAQDYGVLKADEGISFRGLFIIDDKGILRQITVNDLPVGRSVDETLRLVQAFQFTDKHGEVAPAGWKPGSDTIKPDVQKSKEYFSKQK | binds | –
Prdx1 WT-LC (peroxiredoxin-1 fused to the C-terminal half of mLumin) (enzyme, UniProt Q06830 1-199) MSSGNAKIGHPAPNFKATAVMPDGQFKDISLSDYKGKYVVFFFYPLDFTFVCPTEIIAFSDRAEEFKKLNCQVIGASVDSHFCHLAWVNTPKKQGGLGPMNIPLVSDPKRTIAQDYGVLKADEGISFRGLFIIDDKGILRQITVNDLPVGRSVDETLRLVQAFQFTDKHGEVCPAGWKPGSDTIKPDVQKSKEYFSKQK | – | no binding

From paper PMC8300624
